These results are taken from PubChem BioAssay AID208 (DTP/NCI, 2004).

The list shows only some results of the screen, not a fair sample: it gathers tests that were run many times, whatever their T/C, doses with no T/C, and many T/C values between a quarter and a half above the control. Other doses and runs of a compound stand elsewhere. T/C: endpoint of the treated group in % of that of the vehicle group. Schedules are NCI's codes, taken here to give the interval after Q, in days (D) or hours (H), and the number of doses after X. Some doses were run more than once; the results are listed from low to high. Some T/C values carry the count of animals alive at the toxicity check (mostly the fifth day); without a count, all were alive then. Some values lie below zero, which means that the treated tumours became smaller. Some entries give survivors of the animals treated and no T/C: the source files T/C as zero there, which appears to mark a toxic dose or a test without result, not a measured value. Survivors were counted at the toxicity check, usually on the fifth day, unless a day is given; later deaths do not show.

The experiment deals with HT29 intrarenal xenograft, nude mice, tumor weight change. Description: NCI In Vivo Anticancer Drug Screen. Data for tumor model HT29;CX-1 Human Adenocarcinoma (MER+) (intrarenal inoculation) in NU/NU BALB/C (nude) mice. The settings on record: T/C endpoint: mean tumor weight change, higher T/C = larger tumour. How it is done: The antitumor activity of compounds was measured in mice bearing transplantable tumors. Survival or tumor size were measured and the results are expressed as the measurement made in the treated group (T) divided by the measurement made in the vehicle treated control group (C). The tumor model used in this assay is HT29;CX-1 Human Adenocarcinoma (MER+) (intrarenal inoculation) in NU/NU BALB/C (nude) mice

Setting [1] is: dose: 300.0 mg/kg/injection, schedule: Q04DX004 (sc), vehicle: saline, evaluated on day 15.
[2] abbreviates: dose: 600.0 mg/kg/injection, schedule: Q04DX004 (sc), vehicle: saline.

Take `CS(=O)(=O)c1ncc(Br)cn1`: the T/C (dose: 200.0 mg/kg/injection, schedule: Q01DX010 (sc), vehicle: saline with Tween-80, evaluated on day 11) is 132 % of control.
`COc1cc(Cc2nccc3cc(OC)c(OC)cc23)c(C(C)=O)c(OC)c1`: where the note is “dose: 40.0 mg/kg/injection, schedule: Q01DX010 (sc), vehicle: saline, evaluated on day 11”, the T/C is 127 % of control. Also, the survivor count (dose: 40.0 mg/kg/injection, schedule: Q01DX010 (sc), vehicle: saline) is on record as 2 of 5 on day 11; the survivor count (dose: 80.0 mg/kg/injection, schedule: Q01DX010 (sc), vehicle: saline) is recorded as 1 of 6 on day 11; the survivor count (dose: 160.0 mg/kg/injection, schedule: Q01DX010 (sc), vehicle: saline) was 0 of 6 on day 11 and 2 of 6 on day 11; the survivor count (dose: 320.0 mg/kg/injection, schedule: Q01DX010 (sc), vehicle: saline) is given as 0 of 6 on day 11.
Regarding `COc1cccc2c1C(=O)c1c(O)c3c(c(O)c1C2=O)C[C@@](O)(C(=O)CO)C[C@@H]3OC1CC(N)C(O)C(C)O1` (stereo partly drawn), the T/C is 5, 9, 13, 80 % of control (dose: 2.0 mg/kg/injection, schedule: Q04DX004 (ip), vehicle: saline, evaluated on day 15); 4, 6, 10, 14 % of control (dose: 4.0 mg/kg/injection, schedule: Q04DX004 (ip), vehicle: saline, evaluated on day 15); -76 [4 of 6 alive on day 15], -37 [5 of 6 alive on day 15], 5 % of control (dose: 8.0 mg/kg/injection, schedule: Q04DX004 (ip), vehicle: saline, evaluated on day 15). In addition, the survivor count reads like this: (dose: 8.0 mg/kg/injection, schedule: Q04DX004 (ip), vehicle: saline) 2 of 6 on day 15; (dose: 16.0 mg/kg/injection, schedule: Q04DX004 (ip), vehicle: saline) 0 of 6 on day 15, 1 of 6 on day 15, 3 of 6 on day 15.
For the molecule `C/C(=N\NC(=S)N1CCN(c2ccccn2)CC1)c1ccccn1`, the survivor count by setting is: (dose: 100.0 mg/kg/injection, schedule: Q04DX004 (sc), vehicle: water) 1 of 6 on day 15; (dose: 200.0 mg/kg/injection, schedule: Q04DX004 (sc), vehicle: water) 0 of 6 on day 15; (dose: 400.0 mg/kg/injection, schedule: Q04DX004 (sc), vehicle: water) 0 of 6 on day 15.
For the molecule `Cc1cc(N)c2ccccc2[n+]1CCCCCCCCCC[n+]1c(C)cc(N)c2ccccc21`, the survivor count was 3 of 6 on day 11 (dose: 3.0 mg/kg/injection, schedule: Q01DX010 (ip), vehicle: dextrose) and 0 of 6 on day 11 (dose: 6.0 mg/kg/injection, schedule: Q01DX010 (ip), vehicle: dextrose).
As for `NC(CNC(=O)CBr)C(=O)O` (stereo not drawn), the survivor count (dose: 300.0 mg/kg/injection, schedule: Q04DX004 (sc), vehicle: water) was 0 of 6 on day 15.
With `CCn1cnc2c(=S)nc[nH]c21`, the T/C (dose: 75.0 mg/kg/injection, schedule: Q04DX004 (sc), vehicle: saline, evaluated on day 15) is 136 % of control and the T/C under setting [1] was 136 % of control. Moreover, the survivor count under setting [2] is reported as 0 of 6 on day 15.
Regarding `O=NN(CCCl)C(=O)NC1OC(CO)C(O)C(O)C1O` (stereo not drawn), the survivor count (dose: 40.0 mg/kg/injection, schedule: Q04DX004 (sc), vehicle: saline) is on record as 0 of 6 on day 15.
On to `CN(C)c1ccc2c(NCCCCCCNc3ccnc4cc(N(C)C)ccc34)ccnc2c1`, for which the survivor count (dose: 300.0 mg/kg/injection, schedule: Q04DX004 (sc), vehicle: distilled water + Tween-80 + alcohol) was 0 of 6 on day 15.
In the case of `O=P(O)(NCCCl)NCCCl`, the survivor count is 0 of 3 on day 15 and 0 of 5 on day 15 (dose: 150.0 mg/kg/injection, schedule: Q04DX004 (sc), vehicle: saline); 0 of 3 on day 15 (dose: 300.0 mg/kg/injection, schedule: Q04DX004 (sc), vehicle: saline); 0 of 3 on day 15 under setting [2].
For the molecule `O=c1[nH]c(=O)n([C@H]2CCCO2)cc1F`, the survivor count (dose: 104.9 mg/kg/injection, schedule: Q01DX010 (ip), vehicle: Klucel (hydroxypropylcellulose) (HPC)) is recorded as 2 of 6 on day 15; the survivor count (dose: 237.4 mg/kg/injection, schedule: Q01DX010 (ip), vehicle: Klucel (hydroxypropylcellulose) (HPC)) was 0 of 6 on day 15; the survivor count (dose: 355.9 mg/kg/injection, schedule: Q01DX010 (ip), vehicle: Klucel (hydroxypropylcellulose) (HPC)) is 0 of 6 on day 15; the survivor count (dose: 533.0 mg/kg/injection, schedule: Q01DX010 (ip), vehicle: Klucel (hydroxypropylcellulose) (HPC)) is reported as 0 of 6 on day 15; the survivor count (dose: 533.0 mg/kg/injection, schedule: Q04DX004 (ip), vehicle: Klucel (hydroxypropylcellulose) (HPC)) is reported as 1 of 6 on day 15; the survivor count (dose: 800.0 mg/kg/injection, schedule: Q01DX010 (ip), vehicle: Klucel (hydroxypropylcellulose) (HPC)) was 0 of 6 on day 15. Also, the survivor count reads like this: (dose: 800.0 mg/kg/injection, schedule: Q04DX004 (ip), vehicle: Klucel (hydroxypropylcellulose) (HPC)) 0 of 6 on day 15; (dose: 1199.0 mg/kg/injection, schedule: Q04DX004 (ip), vehicle: Klucel (hydroxypropylcellulose) (HPC)) 0 of 6 on day 15.
Turning to `COc1cc(O)c2c(O)c3c(c4c2c1[C@]1(C4)C(C)=CCCC1(C)C)[C@H](O)[C@@]1(O)CC(=O)C(C(N)=O)=C(O)[C@@]1(O)C3=O`, where the note is “dose: 75.0 mg/kg/injection, schedule: Q04DX004 (ip), vehicle: saline with Tween-80”, the survivor count was 2 of 6 on day 15.
For `C=C(C)[C@@H]1CCc2c(O)c(O)c(=O)cc(C)c2C1`, the T/C was 133 % of control (dose: 150.0 mg/kg/injection, schedule: Q04DX004 (sc), vehicle: saline, evaluated on day 15); 133 % of control under setting [1]; 131 % of control (dose: 600.0 mg/kg/injection, schedule: Q04DX004 (sc), vehicle: saline, evaluated on day 15).
`CN(C)c1ccc(C(=C2C=CC(=[N+](C)C)C=C2)c2ccc(N(C)C)cc2)cc1` (tested in a mixture with another compound): the survivor count is reported as 2 of 6 on day 15 (dose: 300.0 mg/kg/injection, schedule: Q04DX004 (sc), vehicle: saline with Tween-80); 0 of 6 on day 15 (dose: 600.0 mg/kg/injection, schedule: Q04DX004 (sc), vehicle: saline with Tween-80); 1 of 6 on day 15 (dose: 1200.0 mg/kg/injection, schedule: Q04DX004 (sc), vehicle: saline with Tween-80).
As to `c1ccc2c(NCCCCCCNc3c4ccccc4nc4ccccc34)c3ccccc3nc2c1`, the survivor count (dose: 20.0 mg/kg/injection, schedule: Q01DX010 (sc), vehicle: Klucel (hydroxypropylcellulose) (HPC)) is on record as 3 of 6 on day 11 and the survivor count (dose: 40.0 mg/kg/injection, schedule: Q01DX010 (sc), vehicle: Klucel (hydroxypropylcellulose) (HPC)) was 0 of 6 on day 11.
With `CCc1ccc(C2=C(O)C(=O)C(c3ccc(CC)cc3)=C(O)C2=O)cc1`, under “dose: 800.0 mg/kg/injection, schedule: Q04DX004 (sc), vehicle: saline with Tween-80”, the survivor count was 0 of 6 on day 15.
Consider `Nc1ncnc2c1ccn2C1OC(CO)C(O)C1O` (stereo not drawn), for which, for the setting “dose: 1.0 mg/kg/injection, schedule: Q01DX010 (sc), vehicle: Klucel (hydroxypropylcellulose) (HPC), evaluated on day 11”, the T/C was 143 % of control. Moreover, the survivor count (dose: 8.0 mg/kg/injection, schedule: Q01DX010 (sc), vehicle: Klucel (hydroxypropylcellulose) (HPC)) was 0 of 3 on day 11.
With `CN(C)c1nc(N(C)C)nc(N(C)C)n1`, the survivor count (dose: 400.0 mg/kg/injection, schedule: Q01DX010 (sc), vehicle: saline with Tween-80) was 0 of 2 on day 11.
In the case of `O=CC(NC(=O)N(CCCl)N=O)C(O)C(O)C(O)CO` (stereo not drawn), under “dose: 12.0 mg/kg/injection, schedule: Q01DX010 (sc), vehicle: Klucel (hydroxypropylcellulose) (HPC)”, the survivor count is on record as 0 of 3 on day 11.
For the molecule `O=C(C/C(=N\C(=S)Nc1cc(C(F)(F)F)ccc1Cl)NO)N1CCCC1`, the T/C (dose: 2400.0 mg/kg/injection, schedule: Q04DX003 (sc), vehicle: saline with Tween-80, evaluated on day 15) is 129 % of control.
